Results are given in words; binding and its absence hold for the method and conditions named.
Molecular target: T1, SUPPRESSOR OF MAX2 1-LIKE 7 (Arabidopsis) (UniProt O80875)
T1 sequence: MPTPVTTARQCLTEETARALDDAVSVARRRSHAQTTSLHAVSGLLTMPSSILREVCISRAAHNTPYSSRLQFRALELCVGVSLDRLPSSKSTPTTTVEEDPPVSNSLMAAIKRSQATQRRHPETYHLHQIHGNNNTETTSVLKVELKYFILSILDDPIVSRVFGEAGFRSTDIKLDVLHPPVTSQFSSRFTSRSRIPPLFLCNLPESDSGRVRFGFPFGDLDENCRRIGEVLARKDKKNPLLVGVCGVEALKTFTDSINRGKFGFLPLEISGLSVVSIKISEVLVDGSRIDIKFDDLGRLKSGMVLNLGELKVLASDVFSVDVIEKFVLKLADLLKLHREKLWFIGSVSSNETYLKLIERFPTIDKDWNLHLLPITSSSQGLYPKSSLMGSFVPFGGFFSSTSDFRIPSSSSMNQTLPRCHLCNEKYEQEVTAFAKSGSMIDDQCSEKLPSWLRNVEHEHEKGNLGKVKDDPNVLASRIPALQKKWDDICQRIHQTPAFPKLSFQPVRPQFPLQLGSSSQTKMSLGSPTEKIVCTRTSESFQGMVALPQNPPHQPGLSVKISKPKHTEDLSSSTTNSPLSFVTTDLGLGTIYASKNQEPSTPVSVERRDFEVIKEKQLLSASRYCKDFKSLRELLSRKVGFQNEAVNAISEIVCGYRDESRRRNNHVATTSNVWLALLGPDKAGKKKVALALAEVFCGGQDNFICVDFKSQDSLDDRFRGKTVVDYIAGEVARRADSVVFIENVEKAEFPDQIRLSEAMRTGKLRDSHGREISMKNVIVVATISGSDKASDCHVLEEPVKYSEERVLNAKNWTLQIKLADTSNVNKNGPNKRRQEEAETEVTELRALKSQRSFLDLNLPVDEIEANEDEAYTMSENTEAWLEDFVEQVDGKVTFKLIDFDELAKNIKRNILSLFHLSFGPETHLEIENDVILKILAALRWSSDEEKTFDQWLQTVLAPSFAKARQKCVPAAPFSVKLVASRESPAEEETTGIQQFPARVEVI
Experiment: two-hybrid; AtD14 (wild type or mutant) in pGADT7, SMXL7 in pGBKT7, yeast PJ69-4A; growth on SD-Leu/-Trp/-His without or with SLs (10 uM rac-MeCLA or 10 uM 5DS; control acetone), 5 days at 30 °C

binding: no binding
B1: AtD14^R183H (Arabidopsis counterpart of the rice osd14-2 allele OsD14^R233H) (receptor, UniProt Q9SQR3 1-267)
chain: MSQHNILEALNVRVVGTGDRILFLAHGFGTDQSAWHLILPYFTQNYRVVLYDLVCAGSVNPDYFDFNRYTTLDPYVDDLLNIVDSLGIQNCAYVGHSVSAMIGIIASIRRPELFSKLILIGFSPRFLNDEDYHGGFEEGEIEKVFSAMEANYEAWVHGFAPLAVGADVPAAVREFSRTLFNMHPDISLFVSRTVFNSDLRGVLGLVRVPTCVIQTAKDVSVPASVAEYLRSHLGGDTTVETLKTEGHLPQLSAPAQLAQFLRRALPR
